Measured values published in paper PMC8948190.
Results are given in words; binding and its absence hold for the method and conditions named. Binding seen in cells or lysates may run through a third protein. Some binding calls cover weakened binding; strength is not graded here. For some assays here: Tags and fused reporters may be left off the sequences shown.

Protein sequences, listed by entry. Tags and fused reporters are not part of them.
UniProt P09874: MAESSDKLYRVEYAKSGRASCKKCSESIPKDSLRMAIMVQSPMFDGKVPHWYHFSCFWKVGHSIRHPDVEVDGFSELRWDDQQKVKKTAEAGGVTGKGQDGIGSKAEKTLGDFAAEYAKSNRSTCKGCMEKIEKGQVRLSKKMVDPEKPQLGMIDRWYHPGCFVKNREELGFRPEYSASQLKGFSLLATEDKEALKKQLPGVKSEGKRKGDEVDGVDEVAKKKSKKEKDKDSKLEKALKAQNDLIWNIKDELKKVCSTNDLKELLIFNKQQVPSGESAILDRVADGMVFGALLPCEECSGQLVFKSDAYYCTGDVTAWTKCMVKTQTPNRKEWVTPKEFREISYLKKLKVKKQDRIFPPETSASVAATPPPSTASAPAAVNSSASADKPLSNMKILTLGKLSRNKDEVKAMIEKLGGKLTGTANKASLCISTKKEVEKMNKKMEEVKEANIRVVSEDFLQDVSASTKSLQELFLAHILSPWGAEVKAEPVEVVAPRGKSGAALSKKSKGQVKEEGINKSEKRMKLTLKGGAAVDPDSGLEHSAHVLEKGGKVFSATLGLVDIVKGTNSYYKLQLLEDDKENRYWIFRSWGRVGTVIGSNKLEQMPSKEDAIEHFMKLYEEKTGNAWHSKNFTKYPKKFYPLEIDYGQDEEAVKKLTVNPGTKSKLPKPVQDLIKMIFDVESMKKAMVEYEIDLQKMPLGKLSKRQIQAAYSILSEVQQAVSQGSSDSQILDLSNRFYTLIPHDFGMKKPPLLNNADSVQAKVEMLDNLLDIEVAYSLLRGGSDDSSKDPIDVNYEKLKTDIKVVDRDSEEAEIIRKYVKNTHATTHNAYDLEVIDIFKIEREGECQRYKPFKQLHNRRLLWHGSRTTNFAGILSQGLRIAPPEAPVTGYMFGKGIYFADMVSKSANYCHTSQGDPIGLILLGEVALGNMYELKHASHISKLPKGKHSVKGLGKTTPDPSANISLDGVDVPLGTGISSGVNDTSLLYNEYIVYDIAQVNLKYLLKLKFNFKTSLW

Assays:
Myc-HMGB3 = molecular target: T1, Myc-HMGB3 (UniProt O15347); test: co-IP; HEK293T co-transfected with pMyc-C2-HMGB3 and pEGFP-C2-PARP1 for 48 h; IP with anti-Myc or anti-GFP, protein A/G agarose, 4 °C; western blot
T1 sequence: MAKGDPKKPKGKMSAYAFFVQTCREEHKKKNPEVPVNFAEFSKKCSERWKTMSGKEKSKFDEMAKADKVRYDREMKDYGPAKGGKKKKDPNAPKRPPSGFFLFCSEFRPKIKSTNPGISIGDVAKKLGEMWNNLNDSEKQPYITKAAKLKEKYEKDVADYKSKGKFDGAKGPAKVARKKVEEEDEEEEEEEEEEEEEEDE

GST-HMGB3 fusion protein = molecular target: T2, GST-HMGB3 fusion protein (UniProt O15347); test: pull-down; GST-HMGB3 (25 ug) or GST-tag alone on GST-tag Purification Resin incubated with lysate of UWB1.289 cells transfected with PCMV-PARP1 (flag-tag), 2 h at 4 °C; western blot; only the target purified
T2 sequence: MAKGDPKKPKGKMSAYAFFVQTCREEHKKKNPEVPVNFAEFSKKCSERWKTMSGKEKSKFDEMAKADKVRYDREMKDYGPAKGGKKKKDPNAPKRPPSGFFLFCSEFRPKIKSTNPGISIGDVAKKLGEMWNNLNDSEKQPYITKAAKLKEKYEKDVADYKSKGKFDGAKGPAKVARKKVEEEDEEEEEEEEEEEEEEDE

[1] = molecular target: T3, High-mobility group box 3 (HMGB3), endogenous (human (endogenous in A2780, SKOV3, UWB1.289)) (UniProt O15347); test: co-IP; endogenous proteins in A2780, SKOV3 and UWB1.289 lysates; IP with control IgG, anti-HMGB3 or anti-PARP1; western blot; also after 4 mM MMS for 20 min (interaction promoted)
T3 sequence: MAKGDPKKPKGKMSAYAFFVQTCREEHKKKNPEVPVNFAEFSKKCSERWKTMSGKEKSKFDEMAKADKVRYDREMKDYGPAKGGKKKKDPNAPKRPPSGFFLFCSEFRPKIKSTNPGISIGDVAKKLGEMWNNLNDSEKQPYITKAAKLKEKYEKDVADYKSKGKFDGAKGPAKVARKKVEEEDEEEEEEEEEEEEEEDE

[2] = molecular target: poly (ADP-ribose) polymerase 1 (PARP1), endogenous (human (endogenous in A2780, SKOV3, UWB1.289)) (UniProt P09874); test: as above
EGFP-PARP1 = EGFP-PARP1 (UniProt P09874); test: co-IP; HEK293T co-transfected with pMyc-C2-HMGB3 and pEGFP-C2-PARP1 for 48 h; IP with anti-Myc or anti-GFP, protein A/G agarose, 4 °C; western blot

EGFP-PARP1 (from UniProt P09874 1-1014) was tested, and the binding (Myc-HMGB3) was “binds”.

In the case of “PARP1 (Flag-tag) from PCMV-PARP1 (from UniProt P09874 1-1014)”, the binding (GST-HMGB3 fusion protein) is reported as “binds”.

“poly (ADP-ribose) polymerase 1 (PARP1), endogenous (from UniProt P09874 1-1014) (enzyme)” was tested, and the binding [1] was “binds”.

B1: High-mobility group box 3 (HMGB3), endogenous (protein, UniProt O15347 1-200)
chain: MAKGDPKKPKGKMSAYAFFVQTCREEHKKKNPEVPVNFAEFSKKCSERWKTMSGKEKSKFDEMAKADKVRYDREMKDYGPAKGGKKKKDPNAPKRPPSGFFLFCSEFRPKIKSTNPGISIGDVAKKLGEMWNNLNDSEKQPYITKAAKLKEKYEKDVADYKSKGKFDGAKGPAKVARKKVEEEDEEEEEEEEEEEEEEDE
For B1, the binding [2] was “binds”.

B2: Myc-HMGB3 (protein, UniProt O15347 1-200)
chain: MAKGDPKKPKGKMSAYAFFVQTCREEHKKKNPEVPVNFAEFSKKCSERWKTMSGKEKSKFDEMAKADKVRYDREMKDYGPAKGGKKKKDPNAPKRPPSGFFLFCSEFRPKIKSTNPGISIGDVAKKLGEMWNNLNDSEKQPYITKAAKLKEKYEKDVADYKSKGKFDGAKGPAKVARKKVEEEDEEEEEEEEEEEEEEDE
With B2 the binding (EGFP-PARP1) was “binds”.
